The campaign covered roughly 360,000 compounds. About 10,000 (2.8%) were called active. The inconclusive results got no clear call from the source; some entries with a clear call stand among them for comparison. Calls follow the shape of the dose curve; as a rule, active = well fitted inhibition curve with a large enough effect; inconclusive = small, poorly fitted or top-dose-only effect; inactive = flat fitted curve, though single readings scatter. Potencies beside an inconclusive call are fits to weak or partial responses and may not hold up.
biological target: Serine/threonine-protein kinase PLK1 (Homo sapiens) (UniProt P53350); assay: qHTS for Inhibitors of PLK1-PDB (polo-like kinase 1 - polo-box domain): Primary Screen; conditions: Plk1 PBD binding of FITC phosphopeptide, fluorescence polarization; also: nearly all actives have a fitted effect of over 65% in size; as to max response, negative = inhibition: series mostly up to about 57 µM
% is scaled to controls: 0 for no effect and ±100 for the full control effect; potency is read from the fitted curve at half-maximal effect.

Amino acid sequences for entries named in this document (tags omitted).
UniProt P53350, whole entry, looked up: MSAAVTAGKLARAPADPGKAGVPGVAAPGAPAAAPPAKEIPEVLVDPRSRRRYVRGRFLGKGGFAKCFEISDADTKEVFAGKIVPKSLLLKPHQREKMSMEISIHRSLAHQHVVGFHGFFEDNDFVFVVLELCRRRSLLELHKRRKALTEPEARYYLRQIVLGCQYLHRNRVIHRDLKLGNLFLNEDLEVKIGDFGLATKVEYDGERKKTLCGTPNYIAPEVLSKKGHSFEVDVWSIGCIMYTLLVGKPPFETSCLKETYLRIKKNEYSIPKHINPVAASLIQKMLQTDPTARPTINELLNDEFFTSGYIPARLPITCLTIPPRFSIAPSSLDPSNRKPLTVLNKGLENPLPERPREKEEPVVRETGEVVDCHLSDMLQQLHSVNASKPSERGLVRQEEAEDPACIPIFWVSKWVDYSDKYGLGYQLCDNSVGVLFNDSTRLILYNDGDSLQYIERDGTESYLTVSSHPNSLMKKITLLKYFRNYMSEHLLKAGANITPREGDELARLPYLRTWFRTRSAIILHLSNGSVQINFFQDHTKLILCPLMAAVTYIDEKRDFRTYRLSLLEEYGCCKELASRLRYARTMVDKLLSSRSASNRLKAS

SMILES	max response, negative = inhibition	Potency
Cc1cc(C)c2c(c1)C(=O)/C(=C/c1ccc(C(=O)O)cc1)CC2	inactive: -10.9%	–
COc1ccc(N(CC(=O)NC2CCCC2)C(=O)Cn2nnc(-c3ccc(C)cc3)n2)cc1	–	inconclusive: 37.7 µM [inhibitor, single point]
COc1ccc(Cc2c(C3CCCCC3)nc3c(C)cc(Br)cn23)c(C)c1	–	inconclusive: 29.9 µM [inhibitor, partial curve]
CCOc1cc(/C=C2/C(=O)ON=C2C)ccc1OCc1ccc(F)cc1	–	inconclusive: 0.474 µM [inhibitor, full curve]
COc1ccc(/C=N/c2oc(C)c(C)c2C#N)c(OC)c1	inactive: 2.33%	–
COc1ccc(CC(=O)Nc2cccc(-c3nnc(-c4cccc(C)c4)o3)c2)cc1OC	inactive: -2.05%	–
O=C(O)c1ccccc1NC(=S)NC(=O)c1sc2ccccc2c1Cl	–	active: 11.9 µM
CCCCN=c1scc(-c2ccc3c(c2)NC(=O)CO3)n1N=C1CCCC1	–	active: 16.8 µM
Cc1sc2nc(CSC(C)C(=O)Nc3ccc(C#N)cc3)[nH]c(=O)c2c1C (configuration not stated)	inconclusive: -31.3% [inhibitor]	–
Cc1ccc(Cl)cc1Nc1nc(-c2sc(NC(=O)c3ccco3)nc2C)cs1	inactive: -17.3%	–
S=c1[nH]nc(COc2ccc(Cl)cc2Cl)n1-c1ccccc1	inactive: -15.5%	–
Clc1ccc(-c2noc3c2-c2nc(Cc4cccc5ccccc45)sc2CC3)cc1	–	inconclusive: 42.3 µM [inhibitor, partial curve]
CCc1c(C)sc(NC(=O)c2cc(C3CC3)on2)c1C#N	–	inconclusive: 18.9 µM [inhibitor, partial curve]
COc1cccc(C(=O)NC(=S)Nn2cnnc2)c1OC	–	active: 23.8 µM
CC1CC(C)(C)NC(=S)N1CCC(=O)N1CCc2ccccc2C1 (configuration not stated)	inconclusive: -38.5% [inhibitor]	–
O=C(O)c1ccccc1NS(=O)(=O)c1ccc(NN=Cc2ccccc2F)c([N+](=O)[O-])c1	–	active: 23.8 µM
Cc1ccc(NC(=O)CSc2ccc(Br)cc2)cc1S(=O)(=O)N1CCOCC1	–	active: 11.9 µM
CCc1nnc(NS(=O)(=O)c2ccc(NC(=S)NC(=O)c3ccccc3)cc2)s1	inactive: -25%	–
NS(=O)(=O)c1ccc(NC(=O)N2c3ccccc3Sc3ccccc32)cc1	inactive: 2.47%	–
CCCCC[C@@H](C)N1C[C@@H](COCc2ccccc2)Oc2cc(N3CCC[C@@H]3CO)ccc2S1(=O)=O	inactive: -2.79%	–
CC(=O)Nc1cccc(CCc2nc3ccccc3[nH]2)c1	–	inconclusive: 3.77 µM [inhibitor, single point]
O=[N+]([O-])c1ccc(S(=O)(=O)c2cccc(C(F)(F)F)c2)nc1	–	active: 2.67 µM
Cc1nn(C)cc1/C=N/NC(=S)Nc1ccccc1	–	active: 11.9 µM
COc1ccc(N2C(S)=C(C#N)C(=O)NC2c2ccco2)cc1 (configuration not stated)	–	inconclusive: 10.6 µM [inhibitor, partial curve]

3 neighbouring records from above, quoted:
SMILES	max response, negative = inhibition	Potency
COc1ccc(Cc2c(C3CCCCC3)nc3c(C)cc(Br)cn23)c(C)c1	–	inconclusive: 29.9 µM [inhibitor, partial curve]
CCOc1cc(/C=C2/C(=O)ON=C2C)ccc1OCc1ccc(F)cc1	–	inconclusive: 0.474 µM [inhibitor, full curve]
COc1ccc(/C=N/c2oc(C)c(C)c2C#N)c(OC)c1	inactive: 2.33%	–

Later entries.

SMILES	max response, negative = inhibition	Potency
CCOC(=O)/C=C/C(=O)Nc1ccc(S(=O)(=O)N2CCCCCC2)cc1	inactive: -23.7%	–
CCOC(=O)CNC(=O)c1cccnc1	–	active: 23.8 µM
CC(c1ccon1)N(C)Cc1cn[nH]c1-c1ccc(-c2ccccc2)cc1 (configuration not stated)	–	inconclusive: 5.97 µM [inhibitor, single point]
O=c1cc(CCl)[nH]c2nc3ccccc3n12	–	inconclusive: 29.9 µM [inhibitor, partial curve]
CCOc1ccccc1NC(=O)CCS(=O)(=O)c1cccc2nonc12	inactive: -24%	–
COc1cc2ccccc2cc1C(=O)NC(=S)Nc1cccc(C(=O)O)c1	–	inconclusive: 29.9 µM [inhibitor, single point]
CSc1ccccc1C(=O)Nc1cccc(C)c1	inactive: -0.703%	–
COC(=O)c1ccc(CC(=O)c2nc3ccccc3s2)cc1	–	inconclusive: 29.9 µM [inhibitor, single point]
O=C(CSc1ccccc1)N1CCN(c2ccccn2)CC1	inconclusive: -33.4% [inhibitor]	–
CC(C)CC1c2[nH]c3ccccc3c2CCN1C(=O)CCC(=O)N(C)C (configuration not stated)	–	inconclusive: 18.9 µM [inhibitor, partial curve]
COC(=O)C1=C(C)N(Cc2ccco2)C(=O)C1	–	inconclusive: 21.2 µM [inhibitor, single point]
OCC1(Cc2ccccc2)CCCN(Cc2ccc(-c3ccco3)cc2)C1 (configuration not stated)	inactive: -14.7%	–
C[C@H](CO)N1C[C@H](C)[C@@H](CN(C)S(=O)(=O)c2cn(C)cn2)Oc2ccc(NC(=O)Nc3ccccc3)cc2C1=O	inconclusive: -30.7% [inhibitor]	–
COc1cccc(C2=NOC(C(=O)Nc3ccccc3SC)C2)c1 (configuration not stated)	–	active: 29.9 µM
Cc1cccc(C)c1N(Cc1ccccc1F)S(C)(=O)=O	–	inconclusive: 23.8 µM [inhibitor, single point]
Cc1[nH]n(-c2ccc(F)cc2)c(=O)c1/C=N/c1sc2c(c1C#N)CCCC2	–	inconclusive: 8.44 µM [inhibitor, partial curve]
CCCN(CCC)C(=O)c1cc([N+](=O)[O-])cc2c1-c1ccc([N+](=O)[O-])cc1C2=C(C#N)C#N	–	inconclusive: 2.99 µM [inhibitor, full curve]
C/C(=N\NS(=O)(=O)c1ccc(C)c([N+](=O)[O-])c1)c1ccc2c(c1)OCO2	–	inconclusive: 67 µM [inhibitor, partial curve]
COC(=O)C1=C(C)N(Cc2ccccc2)C(=S)N[C@H]1c1cccc(F)c1	inconclusive: -31.2% [inhibitor]	–
Cc1ccc(NC(=O)CN(C)C(=O)C(c2ccccc2)c2ccccc2)cc1	inactive: 2.43%	–
Cc1c(NC(=O)CSc2cccc3cccnc23)c(=O)n(-c2ccccc2)n1C	–	active: 16.8 µM
COc1cc(NC(=O)C2CCN(S(=O)(=O)c3ccc(N4CCCC4=O)cc3)CC2)cc(OC)c1	–	active: 29.9 µM
Nc1ccc(C2(c3ccc(N)cc3)OC(=O)c3ccccc32)cc1	inactive: -9%	–
CCCC(=O)OCCNc1cc(Sc2nccn2C)c2nonc2c1[N+](=O)[O-]	–	active: 2.38 µM

SMILES	max response, negative = inhibition	Potency
Cc1nn(-c2ccccc2)c(C)c1/C=N/n1c(-c2ccc(Cl)cc2)n[nH]c1=S	–	inconclusive: 37.7 µM [inhibitor, single point]
Cc1ccccc1S(=O)(=O)Nc1ncnc2sccc12	inactive: -29.1%	–
COC(=O)c1cccc(Nc2ncnc3sccc23)c1	inactive: -0.4%	–
CCC(Cc1ccccc1)NS(=O)(=O)c1ccc2c(c1)NC(=O)CO2 (configuration not stated)	–	inconclusive: 21.2 µM [inhibitor, partial curve]
Cc1ccc(-n2c(N)c(C(=O)Nc3ccccc3F)sc2=S)cc1C	–	inconclusive: 21.2 µM [inhibitor, partial curve]
CC(C)(C)c1ccc2c(c1)OC(C(=O)N/N=C/c1ccc([N+](=O)[O-])o1)CO2 (configuration not stated)	inconclusive: -30.9% [inhibitor]	–
Cc1noc(NS(=O)(=O)c2ccc(NC(=O)C(C)C)cc2)c1C	inactive: -9.77%	–
COCC1CCN(C(=O)c2cc(COc3ccc4ncccc4c3)on2)CC1	–	active: 16.8 µM
COc1ccccc1NC(=O)c1nnn(CC(=O)Nc2ccccc2)c1N	–	inconclusive: 29.9 µM [inhibitor, partial curve]
O=C(NC1CCSC1=O)c1ccc(Oc2cccc(C(F)(F)F)c2)nc1 (configuration not stated)	–	active: 21.2 µM
O=C1NC(=O)C2(COC(c3cccc([N+](=O)[O-])c3)OC2)S1 (configuration not stated)	–	inconclusive: 16.8 µM [inhibitor, partial curve]
COc1cccc(C2=CC(=O)CC(C)(C)C2)c1	–	inconclusive: 26.7 µM [inhibitor, single point]
CC(C)c1ccc(S(=O)(=O)/N=C2/C=C(Sc3ncn[nH]3)C(=O)c3ccccc32)cc1	–	active: 1.5 µM
Cc1cccnc1Nc1nc(-c2ccc(O)c(O)c2)cs1	–	inconclusive: 23.8 µM [inhibitor, single point]
COc1ccc(-c2nnc(SCC(=O)NC3CCCCC3)n2N)cc1	–	inconclusive: 16.8 µM [inhibitor, partial curve]
CCOc1ccc(C=NNc2ccc(S(=O)(=O)Nc3ccccc3C(=O)O)cc2[N+](=O)[O-])cc1OC	–	inconclusive: 23.8 µM [inhibitor, single point]
COc1ccc(C(C(=O)Nc2c(C)cccc2C)n2c(=O)c(-c3ccco3)nc3ccccc32)cc1 (configuration not stated)	–	inconclusive: 29.9 µM [inhibitor, single point]
COC(=O)c1c(NC(=O)C2C3CCC(C3)C2C(=O)O)sc2c1CCCCC2 (configuration not stated)	–	inconclusive: 26.7 µM [inhibitor, single point]
COc1cc(/C=N/NC(N)=S)ccc1OCC(=O)Nc1ccc(C)cc1	inactive: -27.2%	–
COCCCN(C(=S)NC(=O)c1ccc(Br)cc1)c1c(N)n(Cc2ccccc2)c(=O)[nH]c1=O	–	inconclusive: 29.9 µM [inhibitor, partial curve]
Cc1ccc(-n2nnnc2C(=Cc2ccc(N(C)C)cc2)c2nnnn2-c2ccc(C)cc2)cc1	inactive: -20.6%	–
O=c1cc(C(F)(F)F)[nH]c(=S)n1-c1ccccc1	–	inconclusive: 26.7 µM [inhibitor, partial curve]
O=C(COC(=O)/C=C/c1ccc(OC(F)F)cc1)NCCN1C(=O)CSC1=O	–	inconclusive: 21.2 µM [inhibitor, single point]
O=C(C1CC1)N1CCc2cc(S(=O)(=O)N3CCN(c4ccccc4)CC3)ccc21	inactive: 5.89%	–

Reference: PubChem BioAssay AID720504 (National Center for Advancing Translational Sciences (NCATS), 2013)
